{"source": "PubChem BioAssay AID2685", "about": "(National Center for Advancing Translational Sciences (NCATS), 2010)", "note": "Hit rate of the full screen: of about 320,000 compounds, about 2,100 (0.66%) were called active. This list was built around the results that the source calls inconclusive (neither active nor inactive); the mix of calls is not that of the screen. Calls follow the shape of the dose curve; as a rule, active = well fitted inhibition curve with a large enough effect in the signal ratio, with a control signal flat (not every such curve was filed as active); inconclusive = small, poorly fitted or top-dose-only effect, or effect the other way, or a change in a side signal; inactive = flat fitted curve, though single readings scatter; the % refers to the signal ratio. Where the call is inconclusive, the potency comes from a doubtful curve fit. % is scaled to controls: 0 for no effect and ±100 for the full control effect; potency is read from the fitted curve at half-maximal effect.", "data": [{"assay": "qHTS Assay for Lipid Storage Modulators in Drosophila S3 Cells", "settings": "BODIPY lipid droplet fluorescence, 18-24 h, cells fed with added oleic acid; lipid storage change, negative = inhibition: at 46.1 µM (top of the series) unless noted", "in_short": "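Laser-scanning cytometry quantifies lipid droplet accumulation (500–530 nm total intensity; droplet/cell object ratio) in oleic acid-fed (400 uM added) Drosophila S3 cells treated with a concentration series. 20 uM Triacsin C defined 100% inhibition.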", "values": [{"smiles": "Cc1nc2ccccn2c1C(=O)NNC(=O)Nc1cccc(C(F)(F)F)c1", "Potency": "active: 1.46 µM"}, {"smiles": "CCOc1ccccc1C(=O)N(C)CC(=O)Nc1ccc(OC)cc1", "lipid storage change, negative = inhibition": "inconclusive: 15.4%"}, {"smiles": "CCC(CC)NC(=O)c1cccc(Oc2ccccc2)c1", "Potency": "inconclusive: 6.51 µM [falling, single point]"}, {"smiles": "O=C(Nc1ccccc1)Nc1cccc(-c2nnco2)c1", "lipid storage change, negative = inhibition": "inconclusive: 0.839%"}, {"smiles": "CCc1nc(Nc2ccc3nccnc3c2)c2oc3ccccc3c2n1", "Potency": "inconclusive: 3.66 µM [falling, full curve, poor fit]"}, {"smiles": "CC(C)OCCCNC(=O)CN1C(=O)/C(=C/c2ccccc2F)Oc2ccccc21", "lipid storage change, negative = inhibition": "inconclusive: 21%"}, {"smiles": "COc1cc([N+](=O)[O-])ccc1NC(=O)C[n+]1cccc(C(C)=O)c1", "lipid storage change, negative = inhibition": "inconclusive: -3.82%"}, {"smiles": "CCOc1cc(S(=O)(=O)NCCCN2CCOCC2)c(C)cc1C", "lipid storage change, negative = inhibition": "inconclusive: 50.2%"}, {"smiles": "CCOc1ccc(NC(=O)CN(C)C(=O)c2ccccc2SCC(=O)N2CCCC2)cc1OCC", "Potency": "inconclusive: 0.517 µM [activator, full curve, poor fit]"}, {"smiles": "O=C(O)c1cc(-c2cccnc2)nc2ccc(Br)cc12", "lipid storage change, negative = inhibition": "inactive"}, {"smiles": "O=C(NC(=S)NCCO)c1sc2ccccc2c1Cl", "lipid storage change, negative = inhibition": "inconclusive: -18%"}, {"smiles": "COc1cccc2c1cc1c(=O)n(CC(=O)NCc3ccccn3)nc(C)n12", "lipid storage change, negative = inhibition": "inconclusive: 246%"}, {"smiles": "CCCCn1c(N)c(N(CC(C)C)C(=O)c2ccc(Br)o2)c(=O)[nH]c1=O", "lipid storage change, negative = inhibition": "inconclusive: -77.5%"}, {"smiles": "COC(=O)CN1C(=O)COc2ccc(Cl)cc21", "lipid storage change, negative = inhibition": "inconclusive: -6.82%"}, {"smiles": "COc1cccc2sc(N3CCN(C(=O)c4ccco4)CC3)nc12", "lipid storage change, negative = inhibition": "inconclusive: -56.7%"}, {"smiles": "OCCn1c(-c2ccccc2)csc1=Nc1ccccc1", "lipid storage change, negative = inhibition": "inconclusive: 6.26%"}, {"smiles": "Cc1ccc(-n2c(O)c(C=Nc3ccc4c(c3)OCO4)c3ccccc3c2=O)cc1C", "Potency": "inconclusive: 0.58 µM [falling, full curve, poor fit]"}, {"smiles": "Cc1ccccc1CN1CCCC(C(=O)Nc2ccc(-c3ccn[nH]3)cc2)C1", "note": "(centres undefined)", "Potency": "inconclusive: 0.517 µM [activator, single point]"}, {"smiles": "CC(NC(=O)c1cc(=O)[nH]c2ccc(Br)cc12)c1ccccc1", "note": "(centres undefined)", "lipid storage change, negative = inhibition": "inconclusive: 12.1%"}, {"smiles": "COc1cc2c(cc1OC)CN(C(=S)Nc1c(C)cccc1C)CC2", "lipid storage change, negative = inhibition": "inconclusive: -15.8%"}, {"smiles": "O=C(Nc1ccc2c(c1)OCCO2)c1ccc(S(=O)(=O)N2CCCCC2)cc1", "lipid storage change, negative = inhibition": "inconclusive: -12.7%"}, {"smiles": "O=C(Nc1ccc(CN2CCOCC2)cc1)c1ccc(F)cc1", "lipid storage change, negative = inhibition": "inconclusive: -3.14%"}, {"smiles": "O=C(COc1ccccc1)NN1C(=O)CSC1=S", "lipid storage change, negative = inhibition": "inconclusive: -33.7%"}, {"smiles": "O=C(Cn1cnc2c(nnn2Cc2ccc(F)cc2)c1=O)Nc1ccccc1", "lipid storage change, negative = inhibition": "inconclusive: 8.16%"}, {"smiles": "Nc1nnc(SCC(=O)Nc2ccc(F)c(Cl)c2)n1-c1ccccc1", "Potency": "inconclusive: 1.16 µM [activator, partial curve]"}, {"smiles": "COc1cc2c(cc1OC)C(COc1cccc(C(F)(F)F)c1)NCC2", "note": "(centres undefined)", "Potency": "inconclusive: 6.51 µM [activator, single point]"}, {"smiles": "Cc1nc(N2CCCCC2)c2c(C)c(C(=O)Nc3ccccc3C(F)(F)F)sc2n1", "lipid storage change, negative = inhibition": "inconclusive: -17%"}, {"smiles": "CN1CCSc2ccc(C(=O)Nc3cccc(F)c3)cc21", "lipid storage change, negative = inhibition": "inconclusive: 14.7%"}, {"smiles": "O=C1OCCC1Sc1nnc(-c2ccccc2)o1", "note": "(centres undefined)", "lipid storage change, negative = inhibition": "inconclusive: -17%"}, {"smiles": "O=C(CN(C(=O)CNS(=O)(=O)c1ccccc1)c1ccc(Cl)cc1)NCC1CCCO1", "note": "(centres undefined)", "lipid storage change, negative = inhibition": "inconclusive: 18.6%"}, {"smiles": "Cc1nc2ccc(S(=O)(=O)NCC(=O)N3CCN(c4ccccc4)CC3)cc2s1", "lipid storage change, negative = inhibition": "inconclusive: 34.1%"}, {"smiles": "COCCOC1CCN(C(=O)C2CCC(=O)N(CCc3ccccc3)C2)CC1", "note": "(centres undefined)", "lipid storage change, negative = inhibition": "inconclusive: 7.69%"}, {"smiles": "Cc1cccc(C(=O)NCC(=O)NC(C)c2ccc(-n3ccnc3)cc2)c1", "note": "(centres undefined)", "Potency": "inconclusive: 1.64 µM [rising, partial curve]"}, {"smiles": "O=C(CCSc1nc(-c2ccco2)cc(C(F)(F)F)n1)N1CCN(c2ccccn2)CC1", "Potency": "inconclusive: 1.46 µM [activator, partial curve, poor fit]"}, {"smiles": "CCOc1cc(/C=N/NC(=O)c2cccnc2)cc(Br)c1OCC(N)=O", "lipid storage change, negative = inhibition": "inconclusive: -72.8% [cytotoxic] [at 0.00295 µM]"}, {"smiles": "CC(C)c1ccc(NC2CCCN(C(=O)C3=NN(C)C(=O)CC3)C2)cc1", "note": "(centres undefined)", "Potency": "inconclusive: 29.1 µM [falling, single point]"}, {"smiles": "c1ccc(-n2nnnc2NCCc2c[nH]c3ccccc23)cc1", "lipid storage change, negative = inhibition": "inconclusive: 30.4%"}, {"smiles": "CCCn1c(=O)c(C(=O)NNS(=O)(=O)c2ccc(NC(=O)OC)cc2)c(O)c2ccccc21", "lipid storage change, negative = inhibition": "inconclusive: 491%"}, {"smiles": "CCOc1ccc(NC(=O)c2nnn(CC(=O)Nc3ccccc3OC)c2N)cc1", "lipid storage change, negative = inhibition": "inconclusive: -47%"}, {"smiles": "CC1CCN(C(=O)COC(=O)c2cccc(S(=O)(=O)N(C)c3ccccc3)c2)CC1", "lipid storage change, negative = inhibition": "inconclusive: -6.45%"}, {"smiles": "Cc1cccc(OCC(=O)Nc2ccc(C(=O)Nc3ccccc3C(=O)O)cc2)c1C", "Potency": "inconclusive: 4.61 µM [activator, partial curve, poor fit]"}, {"smiles": "CCN(CC)S(=O)(=O)C1CCS(=O)(=O)C1", "note": "(centres undefined)", "Potency": "inconclusive: 20.6 µM [falling, single point]"}, {"smiles": "CCOc1ccc2nc(NC(=O)CC3Oc4ccccc4NC3=O)sc2c1", "note": "(centres undefined)", "Potency": "inconclusive: 0.0291 µM [activator, full curve, poor fit]"}, {"smiles": "COC(=O)c1ccc(N2C(=O)CC(N3CCN(C(=O)c4ccco4)CC3)C2=O)cc1", "note": "(centres undefined)", "lipid storage change, negative = inhibition": "inconclusive: 11.3%"}, {"smiles": "O=C(O)CSc1nnc(-c2ccc(Cl)cc2)n1-c1ccccc1", "lipid storage change, negative = inhibition": "inconclusive: 138%"}, {"smiles": "Cc1oc2c(C)c3oc(=O)c(CCC(=O)NCCN4CCOCC4)c(C)c3cc2c1C", "lipid storage change, negative = inhibition": "inconclusive: 77%"}, {"smiles": "C/C(=N\\N=C(N)N)c1ccc(Cl)cc1", "lipid storage change, negative = inhibition": "inconclusive: -2.19%"}, {"smiles": "Cc1ccccc1C(=O)N1CCC(C(=O)NCCc2ccc(S(N)(=O)=O)cc2)CC1", "lipid storage change, negative = inhibition": "inconclusive: 141%"}, {"smiles": "CCOC(=O)C1CCN(C/C=C/c2ccccc2OC)CC1", "lipid storage change, negative = inhibition": "inconclusive: 1.45%"}, {"smiles": "O=C1c2ccccc2C(=O)N1CCCc1nc(-c2ccc(Cl)cc2)no1", "lipid storage change, negative = inhibition": "inconclusive: -42.6%"}, {"smiles": "COc1cc(OC)cc(C(=O)NCC(=O)NC(C)c2ccccc2)c1", "note": "(centres undefined)", "lipid storage change, negative = inhibition": "inconclusive: 213%"}, {"smiles": "O=C(Nc1ccccc1Cl)c1cccs1", "lipid storage change, negative = inhibition": "inconclusive: 49.3%"}, {"smiles": "Cc1cc(OC(C)C(=O)NCCCN2CCOCC2)ccc1Cl", "note": "(centres undefined)", "lipid storage change, negative = inhibition": "inconclusive: -23.7%"}, {"smiles": "O=C(CN1C(=O)CC(c2ccccc2)=Nc2ccccc21)NCc1ccccc1", "lipid storage change, negative = inhibition": "inconclusive: -16.1%"}, {"smiles": "CCSc1nnc(NC(=O)[C@@H](NC(=O)c2cccc(C)c2)C(C)C)s1", "lipid storage change, negative = inhibition": "inconclusive: 8.96%"}, {"smiles": "COc1c(OC)c2[nH]c(=O)cc3c4ccccc4n(c1=O)c23", "lipid storage change, negative = inhibition": "inconclusive: -9.91%"}, {"smiles": "O=C(NC1CCCC1)C(c1ccccc1)N(C(=O)c1ccno1)c1cccnc1", "note": "(centres undefined)", "lipid storage change, negative = inhibition": "inconclusive: 20.8%"}, {"smiles": "Cc1cnc(C(=O)OCC(=O)c2ccc(Br)s2)cn1", "lipid storage change, negative = inhibition": "inconclusive"}, {"smiles": "CCc1ccc(OCc2nnc(NC(=O)c3cccs3)s2)cc1", "lipid storage change, negative = inhibition": "inconclusive: -15.3%"}, {"smiles": "COc1cc(/C=N/NC(N)=O)c(Br)cc1OCC(=O)Nc1ccccc1C", "lipid storage change, negative = inhibition": "inconclusive: -25.6%"}, {"smiles": "Nc1nc(Cl)cc(Oc2ccc([N+](=O)[O-])cc2)n1", "lipid storage change, negative = inhibition": "inconclusive: -20.3%"}, {"smiles": "COC(=O)CSc1nnc(-c2cccnc2)o1", "Potency": "inconclusive: 32.6 µM [falling, single point]"}, {"smiles": "O=C(CCC(=O)NC1CCCCC1)NCc1ccc(F)cc1", "Potency": "inconclusive: 29.1 µM [activator, single point]"}, {"smiles": "CC1Sc2ccc(S(=O)(=O)NCCc3ccc(S(N)(=O)=O)cc3)cc2NC1=O", "note": "(centres undefined)", "Potency": "active: 2.59 µM"}, {"smiles": "CC(C)CCCN1CCN=C1N(C)C", "Potency": "inconclusive: 4.61 µM [activator, full curve]"}, {"smiles": "CC(=O)c1c(C(C)=O)c(C)n(-c2ccc(C)c(NC(=O)c3ccccc3Cl)c2)c1C", "lipid storage change, negative = inhibition": "inactive"}, {"smiles": "COCCNC(=O)C(=O)NCC1OCCCN1S(=O)(=O)c1cccs1", "note": "(centres undefined)", "Potency": "inconclusive: 7.31 µM [falling, partial curve, poor fit]"}, {"smiles": "Cc1cc(C(=O)NNC(=O)c2cccs2)c(C)o1", "Potency": "inconclusive: 0.206 µM [falling, full curve]"}, {"smiles": "O=C(CSc1nnc2scc(-c3ccccc3)n12)NCc1ccc2c(c1)OCO2", "lipid storage change, negative = inhibition": "inconclusive: 8.49%"}, {"smiles": "Cc1sc2nc(CSC(C)C(=O)Nc3cc(S(C)(=O)=O)ccc3Cl)[nH]c(=O)c2c1C", "note": "(centres undefined)", "lipid storage change, negative = inhibition": "inconclusive"}, {"smiles": "CN(C(=O)COC(=O)c1nc(Cl)ccc1Cl)c1ccccc1", "lipid storage change, negative = inhibition": "inconclusive: -24.4%"}, {"smiles": "CC(=O)c1ccc(NC(=O)CCC(=O)OCC(=O)c2cccc([N+](=O)[O-])c2)cc1", "lipid storage change, negative = inhibition": "inconclusive: -76.9%"}, {"smiles": "CCOc1cccc(C(=O)Nc2ccc(N3CCN(S(C)(=O)=O)CC3)cc2)c1", "Potency": "inconclusive: 6.51 µM [rising, single point]"}, {"smiles": "CC(C)[C@H](NC(=O)OCc1ccccc1)C(=O)OCC(=O)N1CCN(c2ccccc2)CC1", "lipid storage change, negative = inhibition": "inconclusive: -66.9%"}, {"smiles": "O=c1c2ccc(Cl)cc2[nH]c(=S)n1CCCN1CCOCC1", "Potency": "inconclusive: 0.82 µM [activator, single point]"}, {"smiles": "COC(=O)C1C(=O)C=C(N2CCOCC2)CC1(C)C", "note": "(centres undefined)", "lipid storage change, negative = inhibition": "inconclusive: -14.9%"}, {"smiles": "COc1ccc(-c2oc3ccc(-c4cc(OC)c(OC)c(OC)c4)cc3c2C(=O)c2ccc(OC)nc2)cc1", "lipid storage change, negative = inhibition": "inconclusive: 411%"}, {"smiles": "CC(C)N=C(NS(=O)(=O)c1cccs1)c1ccccc1", "lipid storage change, negative = inhibition": "inconclusive: -24.8%"}, {"smiles": "COc1ccccc1/C=N/N1C(=O)c2cccc3cccc(c23)C1=O", "lipid storage change, negative = inhibition": "inconclusive: 24.7%"}]}]}
